# PubChem BioAssay AID504804 | Drosophila RNAi Screening Center | 2011
# Aim: 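dsRNAs that improve Kc cell survival under doxorubicin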 (primary screen)
# Cells: Drosophila Kc cells
# Knock-down reagent: long dsRNA against Drosophila genes, 0.5 µg dsRNA per well
# Timing: 96 h (48 h knock-down, then 48 h drug)
# Treatment: doxorubicin 5 µg/ml for 48 h, added 48 h after dsRNA
# Measurement: 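Viability measured as cellular ATP by luminescence after 48 h knock-down then 48 h doxorubicin at 5 µg/ml; unnormalised plate counts for each replicate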
# Reading the numbers: raw ATP luminescence: higher = more viable cells, protection from doxorubicin
# Hit rule: 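z-score of 2 or more over plate mean in both duplicates, retained only when retests and separate dsRNAs confirm the protection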
# The deposit covers about 19,000 reagents; shown is an unselected part of those that have a named target and a result. Over the whole deposit, 47 (0.25%) were called active. 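Signals are raw, not normalised; exact z-scores behind calls not deposited; actives needed confirmation, so some wells reaching 2 SD are inactive.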 A number with no mark means an inactive call. Reagents against one gene are numbered here. A plus sign joins genes that one reagent is predicted to hit. Reagent sequences are not shown.
gene,dsRNA no.,"raw ATP luminescence, replicate 1","raw ATP luminescence, replicate 2"
Atg7 (Autophagy-related 7),1,1.32e5,1.32e5
Gyc89Db (Guanylyl cyclase at 89Db),1,46067,59160
CG14635,1,61790,35110
Cpsf160 (Cleavage and polyadenylation specificity factor 160),1,60663,54290
CG34355,1,2.00e5,2.23e5
CG34355,2,80670,72180
CG34355,3,67280,51640
stc (shuttle craft),1,76157,58880
Vtld + CG42529,1,74440,61413
CG4594,1,1.00e5,68023
Nnp-1,1,77530,24060
CG11333,1,38320,45730
Blm + CG14721,1,53800,55373
wdp (windpipe),1,73570,70093
CG10013,1,55103,26500
Nmt (N-myristoyl transferase),1,54847,81930
psh (persephone),1,3.47e5,3.51e5
CRAT (Carnitine O-Acetyl-Transferase),1,56850,57590
pio (piopio),1,88990,67437
Rcd-1 (Required for cell differentiation 1),1,2.03e5,2.24e5
Nep2 (Neprilysin 2),1,17580,20113
kat-60L1 (katanin p60-like 1),1,54247,30720
Mcm5 (Minichromosome maintenance 5),1,64973,59053
Bet1 (Blocked early in transport 1),1,68293,68053
tsu (tsunagi),1,64180,64770
CG42323,1,4.08e5,3.15e5
Srp54 (Splicing regulatory protein 54),1,56477,48927
nxf4 (nuclear export factor 4),1,70707,55827
CG10183,1,55920,46970
CG13578,1,44680,71103
CG13014,1,3.46e5,2.95e5
alpha-Est4 (alpha-Esterase-4),1,58817,60920
Rab6,1,82947,53233
"Caf1-105 (Chromatin assembly factor 1, p105 subunit)",1,51443,84213
"Alg9 (ALG9, alpha-1,2-mannosyltransferase)",1,46410,54077
CG11263,1,75790,73413
GstO3 (Glutathione S transferase O3),1,85970,97240
Cmtr1 (Cap methyltransferase 1),1,23910,37700
CG17601,1,3.55e5,3.28e5
Targ3 (Terminal ADP-ribose protein glycohydrolase 3),1,48543,79067
CG13070,1,50657,40717
"AP-1gamma (Adaptor Protein complex 1, gamma subunit)",1,3.04e5,2.63e5
Desat1 (Desaturase 1),1,51917,60503
Rint1 (RAD50 interactor 1),1,40883,38717
Ir75b (Ionotropic receptor 75b),1,85743,61190
TTLL3B (Tubulin tyrosine ligase-like 3B),1,20803,32450
RNF220 (ring finger protein 220),1,46257,38803
wrm1 (wurmchen 1),1,37473,31387
CG7071 + Muted,1,61350,46670
CG43689,1,11320,15150
Dhc98D (Dynein heavy chain at 89D),1,62900,35570
RpL37-2 (Ribosomal protein L37-2),1,45450,48710
CG15337,1,32980,47860
CG2680,1,69620,55600
CG32639,1,1.97e5,2.66e5
CG13073,1,53090,43387
Uba2 (Ubiquitin-like activating enzyme 2),1,67343,75240
Polr1A (RNA polymerase I subunit A),1,57073,48690
Cenp-C (Centromeric protein-C),1,53020,55083
CG10265,1,58403,57910
Nin (Ninein),1,1.08e5,55597
jing,1,43493,54060
jing,2,83080,74663
jing,3,59900,83867
Rif1 (Rap1 interacting factor 1),1,51617,59320
Dci (Dodecenoyl-CoA delta-isomerase),1,1.67e5,2.15e5
CG7888,1,44000,36590
CG30269,1,77710,61487
fz4 (frizzled 4),1,41120,45370
AstC-R2 (Allatostatin C receptor 2),1,45370,36850
CG45105,1,33010,27750
CG45105,2,54770,53620
CG14190,1,3.57e5,3.11e5
CG12589,1,71443,61260
CG12477,1,37627,27837
bora (aurora borealis),1,39123,39460
HDAC1 (Histone deacetylase 1),1,38960,39517
Ir93a (Ionotropic receptor 93a),1,41840,40037
Ir93a (Ionotropic receptor 93a),2,53090,80530
Mal-A3 (Maltase A3),1,39790,62677
Spn88Eb (Serpin 88Eb),1,85890,17350
nur (nemuri),1,2.10e5,2.10e5
Atx-1 (Ataxin 1),1,37340,43520
GNBP2 (Gram-negative bacteria binding protein 2),1,29587,28127
